# Assay results as given in the supplement of paper PMC6411743.
# Sequences of proteins named here, by UniProt entry; tags and fusion partners are left off. A change or cut given only in a name is not applied to a line headed by its entry.
# UniProt Q8IVS2: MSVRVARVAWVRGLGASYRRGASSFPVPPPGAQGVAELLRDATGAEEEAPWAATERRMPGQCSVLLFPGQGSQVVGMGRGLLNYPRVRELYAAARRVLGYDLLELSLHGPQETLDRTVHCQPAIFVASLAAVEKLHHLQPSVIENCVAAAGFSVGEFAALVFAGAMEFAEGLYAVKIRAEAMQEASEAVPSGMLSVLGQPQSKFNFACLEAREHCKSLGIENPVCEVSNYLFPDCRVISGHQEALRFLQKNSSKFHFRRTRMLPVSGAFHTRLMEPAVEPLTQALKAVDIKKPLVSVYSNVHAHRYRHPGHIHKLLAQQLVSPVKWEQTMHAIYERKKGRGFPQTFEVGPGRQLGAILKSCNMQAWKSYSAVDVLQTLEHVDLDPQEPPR
# UniProt Q8IWY9: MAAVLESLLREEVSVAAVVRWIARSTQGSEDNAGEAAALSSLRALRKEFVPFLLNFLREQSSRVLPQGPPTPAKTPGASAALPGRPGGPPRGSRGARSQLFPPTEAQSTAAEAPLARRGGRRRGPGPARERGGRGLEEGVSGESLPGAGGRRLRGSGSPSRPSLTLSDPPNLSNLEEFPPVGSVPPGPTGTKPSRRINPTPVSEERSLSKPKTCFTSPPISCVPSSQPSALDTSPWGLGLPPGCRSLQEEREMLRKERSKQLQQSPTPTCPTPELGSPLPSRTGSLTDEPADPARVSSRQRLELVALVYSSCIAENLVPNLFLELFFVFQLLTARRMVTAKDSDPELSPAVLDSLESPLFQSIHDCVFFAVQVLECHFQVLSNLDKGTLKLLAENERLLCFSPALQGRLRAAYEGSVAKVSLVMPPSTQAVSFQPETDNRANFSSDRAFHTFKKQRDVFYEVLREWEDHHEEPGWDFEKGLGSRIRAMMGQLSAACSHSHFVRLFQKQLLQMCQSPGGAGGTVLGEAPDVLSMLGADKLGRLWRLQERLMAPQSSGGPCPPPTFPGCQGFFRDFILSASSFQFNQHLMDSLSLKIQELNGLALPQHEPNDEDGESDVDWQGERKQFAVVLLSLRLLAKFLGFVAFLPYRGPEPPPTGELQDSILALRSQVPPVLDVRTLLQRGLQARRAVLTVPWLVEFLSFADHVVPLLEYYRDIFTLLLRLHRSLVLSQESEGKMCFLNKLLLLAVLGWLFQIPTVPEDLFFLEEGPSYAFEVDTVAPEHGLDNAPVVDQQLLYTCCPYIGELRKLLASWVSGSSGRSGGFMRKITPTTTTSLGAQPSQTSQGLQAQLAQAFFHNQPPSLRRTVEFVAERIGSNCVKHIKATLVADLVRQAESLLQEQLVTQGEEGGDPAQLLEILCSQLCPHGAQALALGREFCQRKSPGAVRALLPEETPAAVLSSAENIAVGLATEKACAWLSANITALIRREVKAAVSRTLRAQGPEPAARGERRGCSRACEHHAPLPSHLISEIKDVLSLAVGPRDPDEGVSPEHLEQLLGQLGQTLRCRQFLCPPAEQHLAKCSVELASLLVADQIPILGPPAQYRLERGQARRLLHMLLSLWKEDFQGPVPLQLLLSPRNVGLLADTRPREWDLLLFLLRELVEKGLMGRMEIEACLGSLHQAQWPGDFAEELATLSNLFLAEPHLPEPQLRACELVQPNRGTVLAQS
# UniProt Q8NEC7: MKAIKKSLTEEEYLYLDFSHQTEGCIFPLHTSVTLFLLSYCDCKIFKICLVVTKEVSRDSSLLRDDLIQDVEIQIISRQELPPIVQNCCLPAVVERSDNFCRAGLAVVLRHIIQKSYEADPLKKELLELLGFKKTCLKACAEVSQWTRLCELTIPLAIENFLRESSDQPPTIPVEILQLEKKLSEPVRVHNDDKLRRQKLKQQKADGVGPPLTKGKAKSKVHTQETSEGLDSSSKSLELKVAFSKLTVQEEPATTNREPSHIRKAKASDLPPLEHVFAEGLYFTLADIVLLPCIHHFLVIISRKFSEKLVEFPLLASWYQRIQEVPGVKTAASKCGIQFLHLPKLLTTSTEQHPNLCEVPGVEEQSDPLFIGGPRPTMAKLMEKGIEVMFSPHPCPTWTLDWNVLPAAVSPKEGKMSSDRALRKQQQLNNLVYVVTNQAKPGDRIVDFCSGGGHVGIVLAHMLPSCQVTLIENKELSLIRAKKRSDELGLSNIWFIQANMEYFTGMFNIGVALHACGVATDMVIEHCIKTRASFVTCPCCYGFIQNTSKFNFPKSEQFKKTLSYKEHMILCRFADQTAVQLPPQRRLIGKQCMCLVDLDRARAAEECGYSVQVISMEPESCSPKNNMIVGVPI
# UniProt Q8IWT6: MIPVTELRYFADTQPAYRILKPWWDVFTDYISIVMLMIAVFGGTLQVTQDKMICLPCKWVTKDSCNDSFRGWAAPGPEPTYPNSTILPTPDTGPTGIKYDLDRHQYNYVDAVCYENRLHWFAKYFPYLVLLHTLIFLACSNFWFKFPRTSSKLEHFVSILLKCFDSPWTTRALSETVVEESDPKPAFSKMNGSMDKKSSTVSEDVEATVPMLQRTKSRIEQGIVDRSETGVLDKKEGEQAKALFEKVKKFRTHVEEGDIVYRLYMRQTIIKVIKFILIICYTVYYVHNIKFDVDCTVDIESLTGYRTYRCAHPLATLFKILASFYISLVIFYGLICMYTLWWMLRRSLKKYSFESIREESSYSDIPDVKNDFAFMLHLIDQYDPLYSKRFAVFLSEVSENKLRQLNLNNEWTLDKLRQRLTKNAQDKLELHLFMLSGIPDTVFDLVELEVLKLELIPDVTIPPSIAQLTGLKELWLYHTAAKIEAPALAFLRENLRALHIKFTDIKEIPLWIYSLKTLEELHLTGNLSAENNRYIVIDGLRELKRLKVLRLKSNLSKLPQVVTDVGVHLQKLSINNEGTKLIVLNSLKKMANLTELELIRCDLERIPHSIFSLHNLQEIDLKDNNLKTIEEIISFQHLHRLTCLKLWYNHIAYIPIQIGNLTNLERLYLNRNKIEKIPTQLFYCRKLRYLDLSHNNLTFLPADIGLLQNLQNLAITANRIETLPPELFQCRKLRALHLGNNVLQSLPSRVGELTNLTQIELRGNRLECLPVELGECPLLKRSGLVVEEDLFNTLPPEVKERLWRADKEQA
# UniProt Q8NCF5: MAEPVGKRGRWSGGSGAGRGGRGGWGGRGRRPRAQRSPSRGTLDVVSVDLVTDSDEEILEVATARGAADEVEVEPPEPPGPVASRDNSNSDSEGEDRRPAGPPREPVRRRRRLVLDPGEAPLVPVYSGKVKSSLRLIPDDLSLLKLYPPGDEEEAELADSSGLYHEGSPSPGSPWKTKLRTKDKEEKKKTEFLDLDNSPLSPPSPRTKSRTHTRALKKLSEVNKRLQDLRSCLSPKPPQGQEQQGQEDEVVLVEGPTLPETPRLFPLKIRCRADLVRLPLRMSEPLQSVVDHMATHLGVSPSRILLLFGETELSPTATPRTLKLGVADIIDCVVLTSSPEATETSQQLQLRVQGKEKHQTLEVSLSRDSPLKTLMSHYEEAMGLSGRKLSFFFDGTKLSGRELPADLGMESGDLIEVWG
# UniProt Q8NCN4: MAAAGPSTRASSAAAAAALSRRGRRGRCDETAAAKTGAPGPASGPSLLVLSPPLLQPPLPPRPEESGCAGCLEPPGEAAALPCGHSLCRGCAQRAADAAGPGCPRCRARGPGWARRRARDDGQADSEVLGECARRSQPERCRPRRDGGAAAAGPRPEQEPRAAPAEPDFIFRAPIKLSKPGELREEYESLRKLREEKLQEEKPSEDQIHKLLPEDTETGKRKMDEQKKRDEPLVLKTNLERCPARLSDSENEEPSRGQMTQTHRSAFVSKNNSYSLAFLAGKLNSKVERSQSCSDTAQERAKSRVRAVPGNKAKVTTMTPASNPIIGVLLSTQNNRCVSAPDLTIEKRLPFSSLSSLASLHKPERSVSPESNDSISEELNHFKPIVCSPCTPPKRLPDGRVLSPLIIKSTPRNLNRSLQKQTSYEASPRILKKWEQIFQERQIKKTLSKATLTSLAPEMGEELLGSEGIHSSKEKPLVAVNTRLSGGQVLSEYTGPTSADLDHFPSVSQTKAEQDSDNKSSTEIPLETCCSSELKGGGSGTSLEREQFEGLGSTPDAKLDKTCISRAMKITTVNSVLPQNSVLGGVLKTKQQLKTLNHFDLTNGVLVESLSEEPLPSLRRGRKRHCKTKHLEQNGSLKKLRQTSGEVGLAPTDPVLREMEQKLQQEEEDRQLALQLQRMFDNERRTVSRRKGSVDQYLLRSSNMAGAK
# UniProt Q8NCW5: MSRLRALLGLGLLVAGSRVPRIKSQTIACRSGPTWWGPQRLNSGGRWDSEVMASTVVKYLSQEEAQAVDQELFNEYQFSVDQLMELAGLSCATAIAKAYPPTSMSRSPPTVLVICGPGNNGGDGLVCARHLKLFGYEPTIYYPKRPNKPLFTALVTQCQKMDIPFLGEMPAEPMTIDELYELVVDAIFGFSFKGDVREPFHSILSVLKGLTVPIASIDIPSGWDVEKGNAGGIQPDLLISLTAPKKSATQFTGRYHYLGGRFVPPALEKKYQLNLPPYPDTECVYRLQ
# UniProt Q8NHM5: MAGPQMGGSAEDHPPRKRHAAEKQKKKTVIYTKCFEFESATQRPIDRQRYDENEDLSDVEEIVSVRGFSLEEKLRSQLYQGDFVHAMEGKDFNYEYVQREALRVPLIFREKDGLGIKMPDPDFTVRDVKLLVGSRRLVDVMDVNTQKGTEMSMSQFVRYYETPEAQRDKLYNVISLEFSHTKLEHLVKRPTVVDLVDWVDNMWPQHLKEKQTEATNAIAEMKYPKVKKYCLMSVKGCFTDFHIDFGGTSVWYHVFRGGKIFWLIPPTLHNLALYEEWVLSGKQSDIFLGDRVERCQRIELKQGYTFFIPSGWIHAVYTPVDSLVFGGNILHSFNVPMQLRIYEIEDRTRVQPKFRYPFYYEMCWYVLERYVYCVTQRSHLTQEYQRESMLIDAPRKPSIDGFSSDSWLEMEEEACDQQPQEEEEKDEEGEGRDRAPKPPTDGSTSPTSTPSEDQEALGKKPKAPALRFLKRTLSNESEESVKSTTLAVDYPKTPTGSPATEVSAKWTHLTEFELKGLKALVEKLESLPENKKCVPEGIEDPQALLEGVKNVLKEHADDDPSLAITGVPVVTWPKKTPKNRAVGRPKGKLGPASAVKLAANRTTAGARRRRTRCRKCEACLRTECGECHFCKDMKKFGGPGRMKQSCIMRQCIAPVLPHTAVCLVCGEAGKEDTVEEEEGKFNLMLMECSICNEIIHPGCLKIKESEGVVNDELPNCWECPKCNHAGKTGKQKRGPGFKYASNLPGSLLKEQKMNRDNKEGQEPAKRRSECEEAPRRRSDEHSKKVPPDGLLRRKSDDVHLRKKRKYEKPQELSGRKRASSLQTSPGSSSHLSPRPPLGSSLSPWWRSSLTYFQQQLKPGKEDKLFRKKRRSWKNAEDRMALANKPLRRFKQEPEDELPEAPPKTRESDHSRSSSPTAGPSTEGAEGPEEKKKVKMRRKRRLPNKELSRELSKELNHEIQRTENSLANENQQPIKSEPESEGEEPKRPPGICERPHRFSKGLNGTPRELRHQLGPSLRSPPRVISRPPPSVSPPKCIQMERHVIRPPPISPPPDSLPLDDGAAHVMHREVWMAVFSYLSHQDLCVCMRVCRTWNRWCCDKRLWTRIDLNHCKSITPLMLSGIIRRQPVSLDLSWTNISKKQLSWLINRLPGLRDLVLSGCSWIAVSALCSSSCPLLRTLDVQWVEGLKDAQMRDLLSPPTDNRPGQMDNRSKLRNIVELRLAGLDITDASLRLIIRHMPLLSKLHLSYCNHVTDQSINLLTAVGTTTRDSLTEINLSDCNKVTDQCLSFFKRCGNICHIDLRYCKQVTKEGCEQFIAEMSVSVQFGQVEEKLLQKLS
# UniProt Q8N4V1: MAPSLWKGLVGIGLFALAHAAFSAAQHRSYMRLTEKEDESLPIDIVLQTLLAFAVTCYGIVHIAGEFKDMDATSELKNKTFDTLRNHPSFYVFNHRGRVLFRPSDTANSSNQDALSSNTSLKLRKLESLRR
# UniProt Q8IZ81: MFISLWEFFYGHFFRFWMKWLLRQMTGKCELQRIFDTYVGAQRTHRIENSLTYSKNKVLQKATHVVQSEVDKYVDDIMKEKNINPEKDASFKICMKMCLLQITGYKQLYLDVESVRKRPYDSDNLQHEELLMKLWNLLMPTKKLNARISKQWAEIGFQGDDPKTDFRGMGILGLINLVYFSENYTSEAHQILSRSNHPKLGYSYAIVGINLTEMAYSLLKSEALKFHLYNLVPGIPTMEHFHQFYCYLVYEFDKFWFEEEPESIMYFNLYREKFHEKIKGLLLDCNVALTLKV
# UniProt Q8IVB5: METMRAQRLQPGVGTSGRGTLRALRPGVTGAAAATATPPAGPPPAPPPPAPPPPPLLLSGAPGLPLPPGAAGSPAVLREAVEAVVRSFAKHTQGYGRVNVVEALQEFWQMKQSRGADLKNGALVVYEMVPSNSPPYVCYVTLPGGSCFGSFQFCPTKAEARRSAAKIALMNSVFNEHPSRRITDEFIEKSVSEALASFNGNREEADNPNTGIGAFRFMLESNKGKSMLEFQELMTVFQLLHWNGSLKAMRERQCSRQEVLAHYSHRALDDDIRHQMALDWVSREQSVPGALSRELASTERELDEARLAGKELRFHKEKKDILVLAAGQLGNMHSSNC
# ± gives the standard deviation of the averaged measurements. Some of the results follow.
# Compound: Nc1nc2c(ncn2[C@@H]2O[C@H](COP(=O)(O)OP(=O)(O)OP(=O)(O)O)[C@@H](O)[C@H]2O)c(=O)[nH]1 [guanosine triphosphate]
# Experiment: NP40-soluble protein abundance relative to vehicle (solubility fold change) (ratio); higher = more soluble protein in presence of GTP
# Settings: concentration: 0.1mM
# Summary of the method: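 Crude Jurkat lysate, prepared by Dounce homogenisation, was exposed to eight concentrations from 0.1 to 10 mM for 10 min at room temperature and then 3 min at 37 °C. Solubilisation used 0.8% NP40 with benzonase for 60 min at 4 °C, followed by ultracentrifugation and TMT labelling of the supernatant for LC-MS/MS. After vsn normalisation of intensities, each value is the fold change against the detergent-processed vehicle within each replicate, across three independent experiments.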
row,Target,NP40-soluble protein abundance
1,UniProt Q8N2K0 and related entries,1.09 ± 0.011
2,UniProt Q8NI08 and related entries,0.979 ± 0.011
3,UniProt Q8N6G5 and related entries,0.847 ± 0.047
4,UniProt Q8IVS2,1.06 ± 0.064
5,UniProt Q8IWY9 and related entries,1.06 ± 0.047
6,UniProt Q8NEC7 and related entries,1.07 ± 0.1
7,UniProt Q8NHU6 and related entries,1.09 ± 0.069
8,UniProt Q8TEH3 and related entries,1.12 ± 0.2
9,DCP2 (UniProt Q8IU60),0.983 ± 0.037
10,LRRC8A (UniProt Q8IWT6),1.08 ± 0.087
11,UniProt Q8IX12 and related entries,0.993 ± 0.042
12,UniProt Q8ND76 and related entries,1.06 ± 0.14
13,UniProt Q8N4C8 and related entries,1.1 ± 0.13
14,NFATC2IP (UniProt Q8NCF5),0.994 ± 0.075
15,UniProt Q8NDI1-2|Q8NDI1-3|Q8NDI1,1.01 ± 0.048
16,NUP43 (UniProt Q8NFH3),1.02 ± 0.058
17,PLBD2 (UniProt Q8NHP8),0.962 ± 0.013
18,UniProt Q8IYB5-2|Q8IYB5-3,0.939 ± 0.031
19,RNF169 (UniProt Q8NCN4),1.03 ± 0.026

row,Target,NP40-soluble protein abundance
1,ZC3H15 (UniProt Q8WU90),0.985 ± 0.043
2,UniProt Q8IXQ5 and related entries,1.04 ± 0.15
3,UniProt Q8NFV4 and related entries,1.07 ± 0.092
4,UniProt Q8TDY2 and related entries,1 ± 0.033
5,UniProt Q8NBJ5,1.026 ± 0.0027
6,UniProt Q8NCW5,0.907 ± 0.084
7,UniProt Q8NHM5 and related entries,1.06 ± 0.043
8,ZNF579 (UniProt Q8NAF0),1.04 ± 0.04
9,UniProt Q8N4V1 and related entries,0.881 ± 0.12
10,UniProt Q8IZ81 and related entries,1.12 ± 0.15
11,UniProt Q8IXW5 and related entries,1.04 ± 0.074
12,MLKL (UniProt Q8NB16),0.98 ± 0.044
13,UniProt Q8NDV3 and related entries,0.926 ± 0.073
14,LIX1L (UniProt Q8IVB5),0.994 ± 0.051
15,GALNT12 (UniProt Q8IXK2),1.08 ± 0.075
16,UniProt Q8N0Y2 and related entries,1.19 ± 0.042
17,PPIL4 (UniProt Q8WUA2),0.997 ± 0.03
18,DDX51 (UniProt Q8N8A6),1.07 ± 0.15

# Same assay, conditions: concentration: 0.5mM
row,Target,NP40-soluble protein abundance
1,UniProt Q8N2K0 and related entries,1.04 ± 0.051
2,UniProt Q8NI08 and related entries,0.927 ± 0.017
3,UniProt Q8N6G5 and related entries,1.05 ± 0.073
4,UniProt Q8IVS2,1.05 ± 0.034
5,UniProt Q8IWY9 and related entries,0.993 ± 0.014
6,UniProt Q8NEC7 and related entries,0.978 ± 0.026
7,UniProt Q8NHU6 and related entries,1.08 ± 0.062
8,UniProt Q8TEH3 and related entries,1.13 ± 0.22
9,DCP2 (UniProt Q8IU60),1 ± 0.054
10,LRRC8A (UniProt Q8IWT6),1.1 ± 0.084
11,UniProt Q8IX12 and related entries,0.985 ± 0.027
12,UniProt Q8ND76 and related entries,1.108 ± 0.0068
13,UniProt Q8N4C8 and related entries,0.993 ± 0.014
14,NFATC2IP (UniProt Q8NCF5),0.903 ± 0.096
15,UniProt Q8NDI1-2|Q8NDI1-3|Q8NDI1,0.967 ± 0.058
16,NUP43 (UniProt Q8NFH3),1.0858 ± 0.0002
17,PLBD2 (UniProt Q8NHP8),0.884 ± 0.043
18,UniProt Q8IYB5-2|Q8IYB5-3,0.925 ± 0.047
19,RNF169 (UniProt Q8NCN4),1.12 ± 0.11

row,Target,NP40-soluble protein abundance
1,ZC3H15 (UniProt Q8WU90),0.968 ± 0.042
2,UniProt Q8IXQ5 and related entries,0.983 ± 0.084
3,UniProt Q8NFV4 and related entries,0.929 ± 0.13
4,UniProt Q8TDY2 and related entries,1.01 ± 0.041
5,UniProt Q8NBJ5,1.02 ± 0.021
6,UniProt Q8NCW5,0.869 ± 0.041
7,UniProt Q8NHM5 and related entries,1.08 ± 0.043
8,ZNF579 (UniProt Q8NAF0),0.954 ± 0.054
9,UniProt Q8N4V1 and related entries,0.924 ± 0.11
10,UniProt Q8IZ81 and related entries,1.15 ± 0.2
11,UniProt Q8IXW5 and related entries,1.02 ± 0.033
12,MLKL (UniProt Q8NB16),0.962 ± 0.052
13,UniProt Q8NDV3 and related entries,1.06 ± 0.053
14,LIX1L (UniProt Q8IVB5),0.952 ± 0.083
15,GALNT12 (UniProt Q8IXK2),1.05 ± 0.092
16,UniProt Q8N0Y2 and related entries,0.984 ± 0.037
17,PPIL4 (UniProt Q8WUA2),1.03 ± 0.049
18,DDX51 (UniProt Q8N8A6),1.11 ± 0.05

# Same assay, conditions: concentration: 1mM
row,Target,NP40-soluble protein abundance
1,UniProt Q8N2K0 and related entries,1.01 ± 0.017
2,UniProt Q8NI08 and related entries,0.928 ± 0.045
3,UniProt Q8N6G5 and related entries,0.8819 ± 0.0086
4,UniProt Q8IVS2,1.01 ± 0.025
5,UniProt Q8IWY9 and related entries,1.02 ± 0.011
6,UniProt Q8NEC7 and related entries,0.97 ± 0.091
7,UniProt Q8NHU6 and related entries,1.1 ± 0.025
8,UniProt Q8TEH3 and related entries,0.998 ± 0.17
9,DCP2 (UniProt Q8IU60),0.961 ± 0.069
10,LRRC8A (UniProt Q8IWT6),1.08 ± 0.024
11,UniProt Q8IX12 and related entries,1.004 ± 0.0041
12,UniProt Q8ND76 and related entries,1.14 ± 0.1
13,UniProt Q8N4C8 and related entries,1.1 ± 0.039
14,NFATC2IP (UniProt Q8NCF5),0.981 ± 0.13
15,UniProt Q8NDI1-2|Q8NDI1-3|Q8NDI1,0.985 ± 0.074
16,NUP43 (UniProt Q8NFH3),0.954 ± 0.03
17,PLBD2 (UniProt Q8NHP8),0.973 ± 0.013
18,UniProt Q8IYB5-2|Q8IYB5-3,0.937 ± 0.067
19,RNF169 (UniProt Q8NCN4),1.15 ± 0.11

row,Target,NP40-soluble protein abundance
1,ZC3H15 (UniProt Q8WU90),0.983 ± 0.06
2,UniProt Q8IXQ5 and related entries,0.925 ± 0.072
3,UniProt Q8NFV4 and related entries,0.996 ± 0.063
4,UniProt Q8TDY2 and related entries,1 ± 0.011
5,UniProt Q8NBJ5,0.922 ± 0.018
6,UniProt Q8NCW5,0.991 ± 0.083
7,UniProt Q8NHM5 and related entries,0.982 ± 0.051
8,ZNF579 (UniProt Q8NAF0),1 ± 0.048
9,UniProt Q8N4V1 and related entries,1.02 ± 0.019
10,UniProt Q8IZ81 and related entries,0.932 ± 0.066
11,UniProt Q8IXW5 and related entries,1.07 ± 0.12
12,MLKL (UniProt Q8NB16),0.896 ± 0.062
13,UniProt Q8NDV3 and related entries,1 ± 0.092
14,LIX1L (UniProt Q8IVB5),0.98 ± 0.07
15,GALNT12 (UniProt Q8IXK2),0.982 ± 0.086
16,UniProt Q8N0Y2 and related entries,1.14 ± 0.054
17,PPIL4 (UniProt Q8WUA2),0.995 ± 0.029
18,DDX51 (UniProt Q8N8A6),1.2 ± 0.08
